Patent US6511961B1 (Toray Industries, Inc., priority 1997, dated 2003)

assay: general procedure: Fmoc solid-phase peptide synthesis; Fmoc-protected amino acid bonded resin, or Fmoc-protected resin; PyBOP-HOBT; details: cyclisation step, CF3COOH salt

Compared with C*ADHLC*, C*IDFLC* is lower in cyclisation yield: 59% for the first, 50% for the second.

Compared with C*IDHLC*—NH2, dC*IDHLC* is lower in cyclisation yield: 58% for the first, 39% for the second.

Compared with C*INHLC*—NH2, Pen*IDHLC* is higher in cyclisation yield: 18% for the first, 30% for the second.

Going from C*IDFIC* to C*IDSLC*, the cyclisation yield rises from 37% to 62%.

Compared with C*IDHIC*, C*IDTLC* is higher in cyclisation yield: 50% for the first, 70% for the second.

Compared with C*IDWLC*, C*IDALC* is higher in cyclisation yield: 47% for the first, 52% for the second.

Compared with C*IDHLC—OMe*, AcC*IDHLC* is higher in cyclisation yield: 35% for the first, 68% for the second.

First: C*IEHLC*
Second: C*VDHLC*
The cyclisation yield of the first is lower: 71% for the first, 75% for the second.

Compared with C*INHLC*, Mpr*IDHLC* is lower in cyclisation yield: 85% for the first, 33% for the second.

With C*IYHLC* the cyclisation yield was 52%.

same assay, conditions: cyclisation step, on linear precursor, CF3COOH salt

In the case of C*IDYLC*, the cyclisation yield is reported as “yield 61%”.
With C*IDHLC* the cyclisation yield was “yield 73%”.
